Results published in PubChem BioAssay AID720504 (National Center for Advancing Translational Sciences (NCATS), 2013).
Screen size: about 360,000 compounds; about 10,000 (2.8%) were called active. This list was built around the results that the source calls inconclusive (neither active nor inactive); the mix of calls is not that of the screen. Calls come from the whole dose curve; as a rule, active = well fitted inhibition curve with a large enough effect; inconclusive = small, poorly fitted or top-dose-only effect; inactive = flat fitted curve, though single readings scatter. Potencies of inconclusive entries are doubtful fits and often do not repeat.
% is set by controls: 0 for no effect and ±100 for the full control effect; potency is the fitted concentration of half-maximal effect.
Note: nearly all actives have a fitted effect of over 65% in size.
Throughout, for max response, negative = inhibition: series mostly up to about 57 µM.

Sequences of proteins named here, by UniProt entry; tags and fusion partners are left off.
UniProt P53350, whole entry, looked up: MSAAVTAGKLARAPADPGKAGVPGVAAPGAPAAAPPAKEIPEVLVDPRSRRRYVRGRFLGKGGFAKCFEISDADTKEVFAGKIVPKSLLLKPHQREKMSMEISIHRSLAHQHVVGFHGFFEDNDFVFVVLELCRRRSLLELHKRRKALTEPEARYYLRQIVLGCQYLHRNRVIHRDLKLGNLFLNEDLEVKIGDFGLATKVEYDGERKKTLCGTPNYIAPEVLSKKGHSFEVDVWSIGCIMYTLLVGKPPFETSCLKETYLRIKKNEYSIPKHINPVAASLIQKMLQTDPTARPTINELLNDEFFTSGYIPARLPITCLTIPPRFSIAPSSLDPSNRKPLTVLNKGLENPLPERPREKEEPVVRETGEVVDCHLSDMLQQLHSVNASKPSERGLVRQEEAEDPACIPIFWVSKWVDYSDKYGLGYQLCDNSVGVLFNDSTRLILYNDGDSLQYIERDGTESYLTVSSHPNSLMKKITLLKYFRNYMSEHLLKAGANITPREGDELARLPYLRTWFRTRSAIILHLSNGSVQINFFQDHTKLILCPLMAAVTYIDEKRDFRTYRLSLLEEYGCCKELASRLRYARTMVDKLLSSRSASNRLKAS

The molecules below were run against Serine/threonine-protein kinase PLK1 (Homo sapiens) (UniProt P53350) (assay: qHTS for Inhibitors of PLK1-PDB (polo-like kinase 1 - polo-box domain): Primary Screen). Conditions: Plk1 PBD binding of FITC phosphopeptide, fluorescence polarization.
With `C[C@@H]1CN([C@@H](C)CO)C(=O)CCCn2nncc2CO[C@@H]1CN(C)C(=O)c1ccccc1` the max response, negative = inhibition was inactive: -3.09%. With `CC(C)c1ccc(/C=C/C(=O)N2CCOCC2)cc1` the Potency was inconclusive: 23.8 µM [inhibitor, single point]. `NS(=O)(=O)c1ccc(CCNC(=S)Nc2ccc(S(N)(=O)=O)cc2)cc1` was tested, and the Potency was inconclusive: 16.8 µM [inhibitor, partial curve]. With `O=C(NC(=S)Nn1cnnc1)c1ccccc1` the Potency was inconclusive: 26.7 µM [inhibitor, single point]. For `O=C(c1nc(-c2ccccc2)n(-c2ccccc2)n1)N1CCN(S(=O)(=O)c2ccccc2)CC1`, the Potency was inconclusive: 29.9 µM [inhibitor, partial curve]. With `COc1ccc(C(=O)N2CCCCC2C(=O)Nc2ccc(-n3nc(C)cc3C)cc2)o1` (centres undefined) the Potency was active: 23.8 µM. For `N=C1/C(=C\c2ccc(OC(=O)c3ccco3)cc2)C(=O)N=C2SC=NN12`, the max response, negative = inhibition was inconclusive: -34.2% [inhibitor]. In the case of `O=C(O)CCSc1ncnc2sc(-c3ccccc3)cc12`, the Potency is reported as active: 16.8 µM. For `O=[N+]([O-])c1cccc(/C=N/n2c(COc3ccccc3)n[nH]c2=S)c1`, the Potency was inconclusive: 23.8 µM [inhibitor, partial curve]. For `CC1=CC(=O)C(C(C)C)=CC1=NC(=O)c1ccc(C)cc1`, the Potency was active: 2.67 µM. `Cc1sc2ccc3sccc3c2[n+]1C` was tested, and the Potency was inconclusive: 3.77 µM [inhibitor, full curve, poor fit]. `COc1ccc(CCNC(=O)CC(c2ccccc2)c2cccc(C)c2O)cc1OC` (centres undefined) was tested, and the max response, negative = inhibition was inactive: 5.27%. For `Cc1cccc(-c2nc3ccccc3c(=O)n2N)c1`, the Potency was inconclusive: 37.7 µM [inhibitor, partial curve]. For `COc1cccc(CNC(=O)CCCn2nc(C)n3c(cc4sccc43)c2=O)c1`, the Potency was inconclusive: 26.7 µM [inhibitor, partial curve]. `CC1(C)CC2(CC(c3ccc(F)cc3)c3ccc(O)cc3O2)NC(=S)N1` (centres undefined) was tested, and the max response, negative = inhibition was inactive: -13.5%. In the case of `c1ccc(CC2CCN(c3nnnn3-c3ccccc3)CC2)cc1`, the Potency is reported as inconclusive: 18.9 µM [inhibitor, partial curve]. For `CC(C)[C@H]1CN=C2N(CCNC(=O)CCC3CCCCC3)[C@H](Cc3ccc(O)cc3)CN21`, the Potency was active: 26.7 µM. For `O=C(Nc1nnc(S(=O)(=O)N2CCCC2)s1)c1ccccc1F`, the max response, negative = inhibition was inactive: -3.59%. With `Cc1coc2c1c(C)cc1oc(=O)c(CC(=O)N[C@@H](CC(C)C)C(=O)O)c(C)c12` the max response, negative = inhibition was inactive: -14.3%. For `O/C=c1\ccc2cccc3nc(C(F)(F)F)nc1c23`, the Potency was inconclusive: 1.5 µM [inhibitor, full curve]. In the case of `COc1ccc(N=Nc2nc(-c3ccccc3)c(-c3ccccc3)[nH]2)cc1`, the max response, negative = inhibition is reported as inactive: 3.95%. With `COc1ccc(S(=O)(=O)Nc2c(NC3CCCCC3)c3ccccc3oc2=O)cc1OC` the max response, negative = inhibition was inactive: -3.92%. With `O=CNc1cc(-c2ccc(C(=O)NC3CC3)cc2)cn2c(-c3ccc(F)c(Cl)c3)cnc12` the Potency was inconclusive: 26.7 µM [inhibitor, partial curve]. For `O=[N+]([O-])c1ccc(S(=O)(=O)NN=CCCc2ccccc2)cc1`, the Potency was inconclusive: 21.2 µM [inhibitor, partial curve]. For `CC(=NNC(=S)N1CCN(c2ccccn2)CC1)c1ccccn1`, the max response, negative = inhibition was inconclusive: -32.4% [inhibitor]. For `Cc1ccc(S(=O)(=O)N2C[C@H]3N(C(=O)OC(C)C)N(C(=O)OC(C)C)C[C@H](OC(=O)Nc4cccs4)[C@@]3(O)C2)cc1`, the max response, negative = inhibition was inconclusive: -38.2% [inhibitor]. `CN(CC(=O)Nc1c(Cl)cccc1Cl)C(=O)c1cccc(-n2cccc2)c1` was tested, and the Potency was inconclusive: 23.8 µM [inhibitor, single point]. `NC(=O)c1ccccc1NC(=O)c1ccc2ccccc2c1` was tested, and the max response, negative = inhibition was inactive: -20%. `CCOC(=O)c1c(NC(C)=O)sc2c1C1CCN2CC1` was tested, and the Potency was inconclusive: 16.8 µM [inhibitor, partial curve]. With `Fc1ccc(/C=N/n2c(COc3ccccc3)n[nH]c2=S)cc1` the Potency was active: 23.8 µM. In the case of `CC[C@]1(C(=O)OC)[C@H]2C(=O)N(Cc3ccccc3)C(=O)[C@H]2[C@H]2CN=C(SCC(=O)c3ccccc3)N21`, the Potency is reported as inconclusive: 29.9 µM [inhibitor, partial curve]. In the case of `COc1cc(NC(=S)NC(C)(C)C)c(OC)cc1Cl`, the Potency is reported as inconclusive: 21.2 µM [inhibitor, partial curve]. With `COc1ccc(/C=N/S(=O)(=O)c2ccc(C)cc2)cc1` the max response, negative = inhibition was inactive: -3.53%. For `CC(C)(C)c1ccc(S(=O)(=O)Nc2ccc3c(c2)COC3=O)cc1`, the max response, negative = inhibition was inactive: -10.8%. For `CC(=O)N1c2ccc(S(=O)(=O)N3CCCCC3)cc2CC1C(=O)Nc1ccc(F)cc1C` (centres undefined), the Potency was active: 26.7 µM. `CC(C)(C)OC(=O)N[C@@H](CC(=O)OCc1ccccc1)C(=O)O` was tested, and the Potency was active: 26.7 µM. With `COc1ccc(Nc2nc(-c3sc(N)nc3C)cs2)cc1` the Potency was inconclusive: 26.7 µM [inhibitor, partial curve]. For `O=c1cc(-c2ccc(OCc3ccccc3)cc2)oc2cc(OCc3ccccc3)cc(OCc3ccccc3)c12`, the Potency was inconclusive: 67 µM [inhibitor, partial curve]. `CCOC(=O)CSc1nnc(-c2cccc(Br)c2)o1` was tested, and the Potency was inconclusive: 26.7 µM [inhibitor, single point]. For `COCCN1CSC(=S)N(Cc2ccco2)C1`, the Potency was active: 16.8 µM. `COc1ccccc1N1C(=O)C2C(C(=O)c3ccccc3)=NN(c3ccc(C)cc3)C2C1=O` (centres undefined) was tested, and the Potency was inconclusive: 26.7 µM [inhibitor, partial curve]. `CCOC(=O)C1CCCN(C(=O)c2ccc3ncsc3c2)C1` (centres undefined) was tested, and the max response, negative = inhibition was inconclusive: -30.4% [inhibitor]. In the case of `COc1ccc(Cn2c(C)nc3c(c2=O)c2nc4ccccc4nc2n3Cc2ccco2)cc1`, the Potency is reported as active: 7.52 µM. With `CCn1cc(/C=C(\NC(=O)c2ccccc2F)C(=O)N2CCOCC2)c2ccccc21` the Potency was inconclusive: 10.6 µM [inhibitor, partial curve]. In the case of `C/C=C\C=C/C(=O)Nc1cccc(C2=NOC3(C2)C[C@@H](C(N)=O)N(C(=O)/C=C/C=C\C)C3)c1` (some centres undefined), the Potency is reported as inconclusive: 29.9 µM [inhibitor, single point]. With `O=c1c(C(c2ccccc2)c2c(O)nc3n(c2=O)CCS3)c(O)nc2n1CCS2` the Potency was inconclusive: 16.8 µM [inhibitor, partial curve]. In the case of `O=C(Nc1ccon1)c1ccc(N2CCCCC2)c([N+](=O)[O-])c1`, the Potency is reported as inconclusive: 23.8 µM [inhibitor, partial curve]. In the case of `Cc1ccccc1C(=O)Nc1nc(=S)ss1`, the Potency is reported as active: 10.6 µM. With `O=C(NCc1ccco1)c1nc2nc(-c3cccs3)cc(C(F)(F)F)n2n1` the Potency was inconclusive: 29.9 µM [inhibitor, partial curve]. With `S=C(c1ccc(-c2ccc(Cl)cc2Cl)o1)N1CCCC1` the Potency was inconclusive: 26.7 µM [inhibitor, single point]. `NS(=O)(=O)c1ccc(NC(=O)CSc2ncnc3ccccc23)cc1` was tested, and the Potency was inconclusive: 6.7 µM [inhibitor, single point]. For `COc1ccccc1N1CCN(CC(O)COCCOc2ccc(Br)cc2)CC1` (centres undefined), the max response, negative = inhibition was inactive: 3.17%. `CCCN(CCC)C(=O)c1cn(CC)c2ccc(S(=O)(=O)N3CCCCC3)cc2c1=O` was tested, and the max response, negative = inhibition was inconclusive: -22.1% [inhibitor]. With `CC(C)Cn1c(C(C)C)nc([N+](=O)[O-])c1Sc1ccc(Cl)cn1` the Potency was inconclusive: 26.7 µM [inhibitor, partial curve]. For `Cc1c(NC(=O)OC(C)C)sc(=S)n1C`, the Potency was inconclusive: 23.8 µM [inhibitor, partial curve]. With `CN1CCN(C(=O)C2=C[C@H](c3ccccc3)C[C@H](OCc3ccc(CO)cc3)O2)CC1` the max response, negative = inhibition was inactive: 2.33%. `CCC1Sc2ccc(S(=O)(=O)CCC(=O)NCc3ccc(C)o3)cc2NC1=O` (centres undefined) was tested, and the Potency was inconclusive: 23.8 µM [inhibitor, partial curve]. `CCOC(=O)N1CCc2c(sc3[nH]c(=S)[nH]c(=S)c23)C1` was tested, and the Potency was inconclusive: 7.52 µM [inhibitor, partial curve]. `O=C(/C=C/c1ccco1)NCC1COc2ccccc2O1` (centres undefined) was tested, and the Potency was inconclusive: 26.7 µM [inhibitor, single point]. For `CCc1ccccc1NC(=O)c1cccc(NC(=O)/C=C/c2ccco2)c1`, the max response, negative = inhibition was inactive: -3.72%. In the case of `COc1cccc(/C=C/c2ccccn2)c1O`, the Potency is reported as active: 26.7 µM. `CC(C(=O)Nc1nc2ccccc2s1)n1cc([N+](=O)[O-])cn1` (centres undefined) was tested, and the Potency was inconclusive: 26.7 µM [inhibitor, single point]. For `Cc1ccc(C(=O)O)cc1NC(=S)NC(=O)C(c1ccccc1)c1ccccc1`, the Potency was inconclusive: 23.8 µM [inhibitor, partial curve]. `CC(C)N1CC=C2C(C#N)=C(N)C(C#N)(C#N)C(c3ccccc3)C2C1` (centres undefined) was tested, and the Potency was inconclusive: 31.6 µM [inhibitor, partial curve]. With `Cc1ccc(/C=C/C(=O)NCc2ccccn2)o1` the Potency was inconclusive: 21.2 µM [inhibitor, partial curve]. For `CCOC(=O)c1sc(-c2ccccc2)cc1N`, the max response, negative = inhibition was inactive: 0.862%. With `O=C(NCCN1CCOCC1)c1ccc2c(c1)N(Cc1ccccc1F)C(=O)CS2` the max response, negative = inhibition was inactive: -8.78%. With `O=C(C[C@H]1C/C=C\CC[C@@H](Cc2ccc(F)cc2)C(=O)OC[C@H]2CCCN2C1=O)N[C@@H](CO)Cc1ccccc1` the max response, negative = inhibition was inactive: -2.13%. For `COc1ccccc1N1CCN(C(=O)c2ccc3c(c2)CCN3S(C)(=O)=O)CC1`, the Potency was active: 21.2 µM.
